Results from PMC10663520, “Qa-SNARE syntaxin 18 mediates lipid droplet fusion with SNAP23 and SEC22B” (Cell Discovery, 2023).
These are yes or no findings as the source states them, for the method shown. Binding seen in cells or lysates may run through a third protein. These calls come from enrichment with a bait or labelling near it, and not all partners need be listed. Sequences can lack the tags named with a protein.

Amino acid sequences for entries named in this document (tags omitted).
UniProt O75396: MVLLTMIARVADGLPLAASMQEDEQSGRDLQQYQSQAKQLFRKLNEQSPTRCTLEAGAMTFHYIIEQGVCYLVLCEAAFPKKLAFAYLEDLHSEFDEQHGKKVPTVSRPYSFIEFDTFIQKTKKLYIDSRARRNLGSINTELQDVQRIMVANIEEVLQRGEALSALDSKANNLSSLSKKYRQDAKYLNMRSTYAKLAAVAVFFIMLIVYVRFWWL
UniProt O00161: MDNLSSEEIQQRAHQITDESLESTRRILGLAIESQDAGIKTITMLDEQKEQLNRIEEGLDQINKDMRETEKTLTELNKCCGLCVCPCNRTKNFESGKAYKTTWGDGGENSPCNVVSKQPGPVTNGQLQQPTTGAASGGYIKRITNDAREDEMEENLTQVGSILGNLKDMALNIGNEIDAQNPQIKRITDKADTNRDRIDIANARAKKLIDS

T1: Flag-STX18 (bait of the IP-MS) (UniProt Q9P2W9)
T1 sequence: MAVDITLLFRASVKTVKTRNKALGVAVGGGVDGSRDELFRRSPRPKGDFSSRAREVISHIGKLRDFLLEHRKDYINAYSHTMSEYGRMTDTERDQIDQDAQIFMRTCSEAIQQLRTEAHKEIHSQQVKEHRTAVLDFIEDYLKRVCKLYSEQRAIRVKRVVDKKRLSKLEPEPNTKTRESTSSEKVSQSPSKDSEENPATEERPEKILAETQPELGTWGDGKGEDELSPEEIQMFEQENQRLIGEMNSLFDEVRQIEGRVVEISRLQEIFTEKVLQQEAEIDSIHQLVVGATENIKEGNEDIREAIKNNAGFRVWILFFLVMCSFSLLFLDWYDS


Key:
ZZ-Flag-SEC22B = ZZ-Flag-SEC22B (UniProt O75396); assay: affinity purification with mass spectrometry; tandem affinity purification (TAP-MS) of ZZ-Flag-SEC22B
[1] = target: T1, Flag-STX18 (bait of the IP-MS); assay: affinity purification with mass spectrometry; IP-MS of Flag-STX18; cells not given

| binding (ZZ-Flag-SEC22B) | binding [1] | Molecule |
| --- | --- | --- |
| binds | – | SNAP23 (found in the TAP-MS of ZZ-Flag-SEC22B) (from UniProt O00161 1-211) |
| – | binds | SNAP23 (found in the IP-MS of Flag-STX18) (from UniProt O00161 1-211) |

Further lines, the molecule ahead of its results:

| Molecule | binding (ZZ-Flag-SEC22B) | binding [1] |
| --- | --- | --- |
| SEC22B (found in the IP-MS of Flag-STX18) (from UniProt O75396 1-215) | – | binds |
| STX18 (found in the TAP-MS of ZZ-Flag-SEC22B) (protein, UniProt Q9P2W9 1-335) MAVDITLLFRASVKTVKTRNKALGVAVGGGVDGSRDELFRRSPRPKGDFSSRAREVISHIGKLRDFLLEHRKDYINAYSHTMSEYGRMTDTERDQIDQDAQIFMRTCSEAIQQLRTEAHKEIHSQQVKEHRTAVLDFIEDYLKRVCKLYSEQRAIRVKRVVDKKRLSKLEPEPNTKTRESTSSEKVSQSPSKDSEENPATEERPEKILAETQPELGTWGDGKGEDELSPEEIQMFEQENQRLIGEMNSLFDEVRQIEGRVVEISRLQEIFTEKVLQQEAEIDSIHQLVVGATENIKEGNEDIREAIKNNAGFRVWILFFLVMCSFSLLFLDWYDS | binds | – |
